This continues a long series; more values of the same kind are listed elsewhere.
Tested on: PRISM DNA-barcoded human tumour cell lines
Assay: PRISM pooled cell viability assay;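 note: 8 threefold dilutions from 10 µM with 5 days of exposure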
Assay type: cell-based
Set-up: Area under the curve (AUC): scale not given here
Conditions: for PRISM AUC: KRAS MUT
Method: Cells were then lysed in TCL mRNA lysis buffer, and then PCR with reverse transcription was performed. Detection of the barcodes and univariate and multivariate analysis was then performed as previously described. Data analysis is described in the Supplementary Methods. Up-to-date code for our analysis is at the github link: https://github.com/cmap/dockerized_mts.
For every gene with non-silent mutations in at least four cell-lines, we compared the AUC values between cells with and without those mutations using a t-test. This analysis was carried out for: (i) the full dataset; (ii) excluding cell lines with non-silent KRAS mutations; and (iii) excluding cell lines that have either KRAS or NRAS non-silent mutations.

[1] = KMS28BM_HAEMATOPOIETIC_AND_LYMPHOID_TISSUE

## CCn1c(-c2cc(N3CCN(C4CC4)CC3)cnc2[C@H](C)OC)c2c3cc(ccc31)-c1csc(n1)C[C@H](NC(=O)[C@H]1[C@@H]3COC[C@@H]31)C(=O)N1CCC[C@H](N1)C(=O)OCC(C)(C)C2 [RMC-7977]
IGR37_SKIN
  Area under the curve (AUC): 0.9205
IGR39_SKIN
  Area under the curve (AUC): 0.8992
IGROV1_OVARY
  Area under the curve (AUC): 0.7676
IHH4_THYROID
  Area under the curve (AUC): 0.9203
IM95_STOMACH
  Area under the curve (AUC): 0.5173
IPC298_SKIN
  Area under the curve (AUC): 0.3609
ISHIKAWAHERAKLIO02ER_ENDOMETRIUM
  Area under the curve (AUC): 0.8318
ISTMES2_PLEURA
  Area under the curve (AUC): 1
J82_URINARY_TRACT
  Area under the curve (AUC): 0.801
JAR_PLACENTA
  Area under the curve (AUC): 0.7721
JEG3_PLACENTA
  Area under the curve (AUC): 0.9061
JEKO1_HAEMATOPOIETIC_AND_LYMPHOID_TISSUE
  Area under the curve (AUC): 0.8433
JHH1_LIVER
  Area under the curve (AUC): 0.496
JHH4_LIVER
  Area under the curve (AUC): 0.85
JHH5_LIVER
  Area under the curve (AUC): 0.5644
JHH6_LIVER
  Area under the curve (AUC): 0.7403
JHH7_LIVER
  Area under the curve (AUC): 0.7968
JHOC5_OVARY
  Area under the curve (AUC): 0.7218
JHOM1_OVARY
  Area under the curve (AUC): 0.8545
JHOS2_OVARY
  Area under the curve (AUC): 0.7733
JHUEM2_ENDOMETRIUM
  Area under the curve (AUC): 0.8605
JHUEM7_ENDOMETRIUM
  Area under the curve (AUC): 0.62
JIMT1_BREAST
  Area under the curve (AUC): 0.7261
JJN3_HAEMATOPOIETIC_AND_LYMPHOID_TISSUE
  Area under the curve (AUC): 0.6499
JL1_PLEURA
  Area under the curve (AUC): 0.584
JM1_HAEMATOPOIETIC_AND_LYMPHOID_TISSUE
  Area under the curve (AUC): 0.8388
JMSU1_URINARY_TRACT
  Area under the curve (AUC): 0.8302
JMURTK2_SOFT_TISSUE
  Area under the curve (AUC): 1
JOPACA1_PANCREAS
  Area under the curve (AUC): 0.4149
JR_SOFT_TISSUE
  Area under the curve (AUC): 0.6032
JURKAT_HAEMATOPOIETIC_AND_LYMPHOID_TISSUE
  Area under the curve (AUC): 1
JURLMK1_HAEMATOPOIETIC_AND_LYMPHOID_TISSUE
  Area under the curve (AUC): 0.5365
JVM3_HAEMATOPOIETIC_AND_LYMPHOID_TISSUE
  Area under the curve (AUC): 0.7607
K029AX_SKIN
  Area under the curve (AUC): 0.9269
K562_HAEMATOPOIETIC_AND_LYMPHOID_TISSUE
  Area under the curve (AUC): 0.607
KALS1_CENTRAL_NERVOUS_SYSTEM
  Area under the curve (AUC): 0.8609
KARPAS299_HAEMATOPOIETIC_AND_LYMPHOID_TISSUE
  Area under the curve (AUC): 0.4836
KARPAS620_HAEMATOPOIETIC_AND_LYMPHOID_TISSUE
  Area under the curve (AUC): 0.5423
KARPAS1718_HAEMATOPOIETIC_AND_LYMPHOID_TISSUE
  Area under the curve (AUC): 0.937
KATOIII_STOMACH
  Area under the curve (AUC): 0.6092
KCL22_HAEMATOPOIETIC_AND_LYMPHOID_TISSUE
  Area under the curve (AUC): 0.7801
KD_SOFT_TISSUE
  Area under the curve (AUC): 0.9238
KE37_HAEMATOPOIETIC_AND_LYMPHOID_TISSUE
  Area under the curve (AUC): 0.6942
KE39_STOMACH
  Area under the curve (AUC): 0.6587
KE97_STOMACH
  Area under the curve (AUC): 0.8103
KELLY_AUTONOMIC_GANGLIA
  Area under the curve (AUC): 0.8452
KHM1B_HAEMATOPOIETIC_AND_LYMPHOID_TISSUE
  Area under the curve (AUC): 0.4036
KKU055_BILIARY_TRACT
  Area under the curve (AUC): 0.9851
KKU100_BILIARY_TRACT
  Area under the curve (AUC): 0.508
KKU213_BILIARY_TRACT
  Area under the curve (AUC): 0.6421
KLE_ENDOMETRIUM
  Area under the curve (AUC): 1
KMBC2_URINARY_TRACT
  Area under the curve (AUC): 0.4637
KMCH1_BILIARY_TRACT
  Area under the curve (AUC): 0.7543
KMH2_HAEMATOPOIETIC_AND_LYMPHOID_TISSUE
  Area under the curve (AUC): 0.9807
KMRC1_KIDNEY
  Area under the curve (AUC): 1
KMRC3_KIDNEY
  Area under the curve (AUC): 0.9151
KMRC20_KIDNEY
  Area under the curve (AUC): 0.7848
KMS11_HAEMATOPOIETIC_AND_LYMPHOID_TISSUE
  Area under the curve (AUC): 0.8315
KMS12BM_HAEMATOPOIETIC_AND_LYMPHOID_TISSUE
  Area under the curve (AUC): 0.8787
KMS18_HAEMATOPOIETIC_AND_LYMPHOID_TISSUE
  Area under the curve (AUC): 0.4607
KMS21BM_HAEMATOPOIETIC_AND_LYMPHOID_TISSUE
  Area under the curve (AUC): 0.5385
KMS27_HAEMATOPOIETIC_AND_LYMPHOID_TISSUE
  Area under the curve (AUC): 0.4667
[1]
  Area under the curve (AUC): 0.7652
  PRISM AUC: 0.6205
KMS34_HAEMATOPOIETIC_AND_LYMPHOID_TISSUE
  Area under the curve (AUC): 0.8463
KNS42_CENTRAL_NERVOUS_SYSTEM
  Area under the curve (AUC): 0.8517
KNS60_CENTRAL_NERVOUS_SYSTEM
  Area under the curve (AUC): 0.8388
KNS62_LUNG
  Area under the curve (AUC): 0.5352
KNS81_CENTRAL_NERVOUS_SYSTEM
  Area under the curve (AUC): 0.5921
KON_UPPER_AERODIGESTIVE_TRACT
  Area under the curve (AUC): 0.4726
KOPN8_HAEMATOPOIETIC_AND_LYMPHOID_TISSUE
  Area under the curve (AUC): 0.4718
KOSC2CL343_UPPER_AERODIGESTIVE_TRACT
  Area under the curve (AUC): 0.5539
KP2_PANCREAS
  Area under the curve (AUC): 0.3867
KP3_PANCREAS
  Area under the curve (AUC): 0.5817
KP4_PANCREAS
  Area under the curve (AUC): 0.6677
KPNYN_AUTONOMIC_GANGLIA
  Area under the curve (AUC): 0.9976
KS1_CENTRAL_NERVOUS_SYSTEM
  Area under the curve (AUC): 0.6006
KU812_HAEMATOPOIETIC_AND_LYMPHOID_TISSUE
  Area under the curve (AUC): 0.5989
KU1919_URINARY_TRACT
  Area under the curve (AUC): 0.4352
KURAMOCHI_OVARY
  Area under the curve (AUC): 0.9422
KYM1_SOFT_TISSUE
  Area under the curve (AUC): 0.6237
KYO1_HAEMATOPOIETIC_AND_LYMPHOID_TISSUE
  Area under the curve (AUC): 0.587
KYSE30_OESOPHAGUS
  Area under the curve (AUC): 0.5749
KYSE70_OESOPHAGUS
  Area under the curve (AUC): 0.6455
KYSE140_OESOPHAGUS
  Area under the curve (AUC): 0.7212
KYSE150_OESOPHAGUS
  Area under the curve (AUC): 0.6598
KYSE180_OESOPHAGUS
  Area under the curve (AUC): 0.8299
KYSE270_OESOPHAGUS
  Area under the curve (AUC): 0.6612
KYSE410_OESOPHAGUS
  Area under the curve (AUC): 0.5098
KYSE450_OESOPHAGUS
  Area under the curve (AUC): 0.5089
KYSE510_OESOPHAGUS
  Area under the curve (AUC): 0.6235
KYSE520_OESOPHAGUS
  Area under the curve (AUC): 0.6342
L33_PANCREAS
  Area under the curve (AUC): 0.5375
L82_HAEMATOPOIETIC_AND_LYMPHOID_TISSUE
  Area under the curve (AUC): 0.4783
L363_HAEMATOPOIETIC_AND_LYMPHOID_TISSUE
  Area under the curve (AUC): 0.7257
LAMA84_HAEMATOPOIETIC_AND_LYMPHOID_TISSUE
  Area under the curve (AUC): 0.6417
LC1SQSF_LUNG
  Area under the curve (AUC): 0.7829
LCLC103H_LUNG
  Area under the curve (AUC): 0.8221
LI7_LIVER
  Area under the curve (AUC): 0.661
LK2_LUNG
  Area under the curve (AUC): 0.5337
LMSU_STOMACH
  Area under the curve (AUC): 0.6607
LN18_CENTRAL_NERVOUS_SYSTEM
  Area under the curve (AUC): 0.8114
LN229_CENTRAL_NERVOUS_SYSTEM
  Area under the curve (AUC): 0.7455
LN382_CENTRAL_NERVOUS_SYSTEM
  Area under the curve (AUC): 0.6664
LN464_CENTRAL_NERVOUS_SYSTEM
  Area under the curve (AUC): 0.8868
LNCAPCLONEFGC_PROSTATE
  Area under the curve (AUC): 0.8391
LNZ308_CENTRAL_NERVOUS_SYSTEM
  Area under the curve (AUC): 0.6041
LOUNH91_LUNG
  Area under the curve (AUC): 0.4513
LOVO_LARGE_INTESTINE
  Area under the curve (AUC): 0.6475
LOXIMVI_SKIN
  Area under the curve (AUC): 0.8979
LPS141_SOFT_TISSUE
  Area under the curve (AUC): 0.9304
LS180_LARGE_INTESTINE
  Area under the curve (AUC): 0.5319
LS411N_LARGE_INTESTINE
  Area under the curve (AUC): 0.9628
LS513_LARGE_INTESTINE
  Area under the curve (AUC): 0.5881
LS1034_LARGE_INTESTINE
  Area under the curve (AUC): 0.6086
  PRISM AUC: 0.5003
LS_AUTONOMIC_GANGLIA
  Area under the curve (AUC): 0.9057
LU99_LUNG
  Area under the curve (AUC): 0.4577
LUDLU1_LUNG
  Area under the curve (AUC): 0.5866
